# Experimental data reported in patent US20250376533A1.
# Protein sequences, listed by entry. Tags and fused reporters are not part of them. Lines headed by an entry give the natural chain unless they say otherwise; changes in a name come on top. Chains listed by the source or under a name are the forms on record and can include a tag or linker.
# cynomolgus PD-L1 antigen (ACROBiosystems) (G7PSE7, form named): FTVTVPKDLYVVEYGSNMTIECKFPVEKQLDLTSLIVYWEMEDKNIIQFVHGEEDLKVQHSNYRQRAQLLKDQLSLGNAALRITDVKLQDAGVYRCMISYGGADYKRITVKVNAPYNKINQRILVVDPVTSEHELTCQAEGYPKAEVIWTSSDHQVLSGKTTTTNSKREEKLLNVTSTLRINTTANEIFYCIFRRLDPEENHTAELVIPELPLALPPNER
# cynomolgus CD40 antigen (ACROBiosystems) (G7PG38, form named): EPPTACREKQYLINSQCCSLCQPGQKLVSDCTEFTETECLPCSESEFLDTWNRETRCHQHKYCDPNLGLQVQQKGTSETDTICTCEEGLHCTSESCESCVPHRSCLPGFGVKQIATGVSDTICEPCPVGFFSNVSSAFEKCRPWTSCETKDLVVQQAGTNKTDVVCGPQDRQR
# No constants are given. Whether binding was seen depends on the method and setting. Some binding calls cover weakened binding; strength is not graded here.
# B1: anti-PD-L1/CD40 bispecific antibody 1606 (bispecific antibody, human IgG2, kappa)
# light: DIQMTQSPSSLSASVGDRVTITCRASQDIRNYLNWYQQKPGKAPKLLIYYTSRRDSGVPSRFSGSGSGTDYTLTISSLQPEDFATYFCQQGKTLPWTFGGGTKVEIKRTVAAPSVFIFPPSDEQLKSGTASVVCLLNNFYPREAKVQWKVDNALQSGNSQESVTEQDSKDSTYSLSSTLTLSKADYEKHKVYACEVTHQGLSSPVTKSFNRGEC
# heavy: EVQLVESGGGLVQPGGSLRLSCAASGFTFSDYYMSWVRQAPGKGLEWVGFIRNKANGYTTEYAASVKGRFTISRDNSKNTLYLQMNSLRAEDTAVYYCARYGGLRQGWYFDVWGQGTLVTVSSASTKGPSVFPLAPCSRSTSESTAALGCLVKDYFPEPVTVSWNSGALTSGVHTFPAVLQSSGLYSLSSVVTVPSSNFGTQTYTCNVDHKPSNTKVDKTVERKCCVECPPCPAPPVAGPSVFLFPPKPKDTLMISRTPEVTCVVVDVSHEDPEVQFNWYVDGVEVHNAKTKPREEQFNSTFRVVSVLTVVHQDWLNGKEYKCKVSNKGLPAPIEKTISKTKGQPREPQVYTLPPSREEMTKNQVSLTCLVKGFYPSDIAVEWESNGQPENNYKTTPPMLDSDGSFFLYSKLTVDKSRWQQGNVFSCSVMHEALHNHYTQKSLSLSPGGGGGSGGGGSGGGGSGEVQLVESGGGLVQPGGSLRLSCAASGFTFDYYTQCWFRQAPGKEREWVSCISSSEGSTYYADSVKGRFTISRDNSKNTVYLQMNSLKTEDTAVYYCAARKGGPLTIENFFDYWGQGTQVTVSS
# B2: anti-PD-L1/CD40 bispecific antibody 1609 (bispecific antibody, human IgG2, kappa)
# light: DIQMTQSPSSLSASVGDRVTITCRASQTISSYLNWYQQKPGKAPKLLIYYTSTLQSGVPSRFSGSGSGTDYTLTISSLQPEDFATYYCQQGNAYPWTFGGGTKVEIKRTVAAPSVFIFPPSDEQLKSGTASVVCLLNNFYPREAKVQWKVDNALQSGNSQESVTEQDSKDSTYSLSSTLTLSKADYEKHKVYACEVTHQGLSSPVTKSFNRGEC
# heavy: EVQLVESGGGLVQPGGSLRLSCAASGFTFSNYYMSWVRQAPGKGLEWVGFIRNKANGYTTEYAASVKGRFTISRDNSKSTLYLQMNSLRAEDTAVYYCARYGGLKIGWYFDLWGQGTLVTVSSASTKGPSVFPLAPCSRSTSESTAALGCLVKDYFPEPVTVSWNSGALTSGVHTFPAVLQSSGLYSLSSVVTVPSSNFGTQTYTCNVDHKPSNTKVDKTVERKCCVECPPCPAPPVAGPSVFLFPPKPKDTLMISRTPEVTCVVVDVSHEDPEVQFNWYVDGVEVHNAKTKPREEQFNSTFRVVSVLTVVHQDWLNGKEYKCKVSNKGLPAPIEKTISKTKGQPREPQVYTLPPSREEMTKNQVSLTCLVKGFYPSDIAVEWESNGQPENNYKTTPPMLDSDGSFFLYSKLTVDKSRWQQGNVFSCSVMHEALHNHYTQKSLSLSPGGGGGSGGGGSGGGGSGEVQLVESGGGLVQPGGSLRLSCAASGFTFDYYTQCWFRQAPGKEREWVSCISSSEGSTYYADSVKGRFTISRDNSKNTVYLQMNSLKTEDTAVYYCAARKGGPLTIENFFDYWGQGTQVTVSS
# B3: anti-PD-L1/CD40 bispecific antibody 1652 (bispecific antibody, human IgG2, kappa)
# light: DIQMTQSPSSLSASVGDRVTITCRASQDIRNYLNWYQQKPGKAPKLLIYYTSRRDSGVPSRFSGSGSGTDYTLTISSLQPEDFATYFCQQGKTLPWTFGGGTKVEIKRTVAAPSVFIFPPSDEQLKSGTASVVCLLNNFYPREAKVQWKVDNALQSGNSQESVTEQDSKDSTYSLSSTLTLSKADYEKHKVYACEVTHQGLSSPVTKSFNRGEC
# heavy: EVQLVESGGGLVQPGGSLRLSCAASGFTFSDYYMSWVRQAPGKGLEWVGFIRNKANAYTTEYAASVKGRFTISRDNSKNTLYLQMNSLRAEDTAVYYCARYGGLRQGWYFDVWGQGTLVTVSSASTKGPSVFPLAPCSRSTSESTAALGCLVKDYFPEPVTVSWNSGALTSGVHTFPAVLQSSGLYSLSSVVTVPSSNFGTQTYTCNVDHKPSNTKVDKTVERKCCVECPPCPAPPVAGPSVFLFPPKPKDTLMISRTPEVTCVVVDVSHEDPEVQFNWYVDGVEVHNAKTKPREEQFNSTFRVVSVLTVVHQDWLNGKEYKCKVSNKGLPAPIEKTISKTKGQPREPQVYTLPPSREEMTKNQVSLTCLVKGFYPSDIAVEWESNGQPENNYKTTPPMLDSDGSFFLYSKLTVDKSRWQQGNVFSCSVMHEALHNHYTQKSLSLSPGGGGGSGGGGSGGGGSGEVQLVESGGGLVQPGGSLRLSCAASGFTFDYYTQCWFRQAPGKEREWVSCISSSEGSTYYADSVKGRFTISRDNSKNTVYLQMNSLKTEDTAVYYCAARKGGPLTIENFFDYWGQGTQVTVSS
# B4: anti-CD40 monoclonal antibody 1605CD (antibody, human IgG2, kappa, V domains shown)
# VH: EVQLVESGGGLVQPGGSLRLSCAASGFTFSNYYMSWVRQAPGKGLEWVAFIRNKANAYTTEYAASVKGRFTISRDNSKSTLYLQMNSLRAEDTAVYYCARYGGIRVGWYFDLWGQGTLVTVSS
# VL: DIQMTQSPSSLSASVGDRVTITCRASQDIRNYLNWYQQKPGKAPKLLIYYTSRLQSGVPSRFSGSGSGTDYTLTISSLQPEDFATYYCQQGQSFPWTFGGGTKVEIKR
# B5: anti-CD40 monoclonal antibody 1606CD (antibody, human IgG2, kappa, V domains shown)
# VH: EVQLVESGGGLVQPGGSLRLSCAASGFTFSDYYMSWVRQAPGKGLEWVGFIRNKANGYTTEYAASVKGRFTISRDNSKNTLYLQMNSLRAEDTAVYYCARYGGLRQGWYFDVWGQGTLVTVSS
# VL: DIQMTQSPSSLSASVGDRVTITCRASQDIRNYLNWYQQKPGKAPKLLIYYTSRRDSGVPSRFSGSGSGTDYTLTISSLQPEDFATYFCQQGKTLPWTFGGGTKVEIKR
# B6: anti-CD40 monoclonal antibody 1607CD (antibody, human IgG2, kappa, V domains shown)
# VH: EVQLVESGGGLVQPGGSLRLSCAASGFTFSDYYMSWVRQAPGKGLEWVGFIRNKANGYTTEYAASVKGRFTISRDNSKSTLYLQMNSLRAEDTAVYYCARYGGLKKGWYFDLWGQGTLVTVSS
# VL: DIQMTQSPSSLSASVGDRVTITCRASQGIRNYLNWYQQKPGKAPKLLIYYTSSLQSGVPSRFSGSGSGTDYTLTISSLQPEDFATYYCQQGINLPWTFGGGTKVEIKR
# B7: anti-CD40 monoclonal antibody 1608CD (antibody, human IgG2, kappa, V domains shown)
# VH: EVQLVESGGGLVQPGGSLRLSCAASGFTFSNYYMSWVRQAPGKGLEWVGFIRNKANGYTTEYAASVKGRFTISRDNSKSTLYLQMNRLRAEDTAVYYCARYGGLKVGWYFDLWGQGTLVTVSS
# VL: DIQMTQSPSSLSASVGDRVTITCRASQSISNYLAWYQQKPGKAPKLLIYAASSLQSGVPSRFSGSGSGTDYTLTISSLQPEDFATYYCQQGSSYPWTFGGGTKVEIKR
# B8: anti-CD40 monoclonal antibody 1609CD (antibody, human IgG2, kappa, V domains shown)
# VH: EVQLVESGGGLVQPGGSLRLSCAASGFTFSNYYMSWVRQAPGKGLEWVGFIRNKANGYTTEYAASVKGRFTISRDNSKSTLYLQMNSLRAEDTAVYYCARYGGLKIGWYFDLWGQGTLVTVSS
# VL: DIQMTQSPSSLSASVGDRVTITCRASQTISSYLNWYQQKPGKAPKLLIYYTSTLQSGVPSRFSGSGSGTDYTLTISSLQPEDFATYYCQQGNAYPWTFGGGTKVEIKR
# B9: anti-CD40 monoclonal antibody 1652CD (antibody, human IgG2, kappa, V domains shown)
# VH: EVQLVESGGGLVQPGGSLRLSCAASGFTFSDYYMSWVRQAPGKGLEWVGFIRNKANAYTTEYAASVKGRFTISRDNSKNTLYLQMNSLRAEDTAVYYCARYGGLRQGWYFDVWGQGTLVTVSS
# VL: DIQMTQSPSSLSASVGDRVTITCRASQDIRNYLNWYQQKPGKAPKLLIYYTSRRDSGVPSRFSGSGSGTDYTLTISSLQPEDFATYFCQQGKTLPWTFGGGTKVEIKR
# B10: anti-CD40 monoclonal antibody 1653CD (antibody, human IgG2, kappa, V domains shown)
# VH: EVQLVESGGGLVQPGGSLRLSCAASGFTFSDYYMSWVRQAPGKGLEWVGFIRNKANAYTTEYAASVKGRFTISRDNSKSTLYLQMNSLRAEDTAVYYCARYGGLKKGWYFDLWGQGTLVTVSS
# VL: DIQMTQSPSSLSASVGDRVTITCRASQGIRNYLNWYQQKPGKAPKLLIYYTSSLQSGVPSRFSGSGSGTDYTLTISSLQPEDFATYYCQQGINLPWTFGGGTKVEIKR
# B11: anti-CD40 monoclonal antibody 1654CD (antibody, human IgG2, kappa, V domains shown)
# VH: EVQLVESGGGLVQPGGSLRLSCAASGFTFSNYYMSWVRQAPGKGLEWVGFIRNKANAYTTEYAASVKGRFTISRDNSKSTLYLQMNRLRAEDTAVYYCARYGGLKVGWYFDLWGQGTLVTVSS
# VL: DIQMTQSPSSLSASVGDRVTITCRASQSISNYLAWYQQKPGKAPKLLIYAASSLQSGVPSRFSGSGSGTDYTLTISSLQPEDFATYYCQQGSSYPWTFGGGTKVEIKR
# B12: anti-CD40 monoclonal antibody 1655CD (antibody, human IgG2, kappa, V domains shown)
# VH: EVQLVESGGGLVQPGGSLRLSCAASGFTFSNYYMSWVRQAPGKGLEWVGFIRNKANAYTTEYAASVKGRFTISRDNSKSTLYLQMNSLRAEDTAVYYCARYGGLKIGWYFDLWGQGTLVTVSS
# VL: DIQMTQSPSSLSASVGDRVTITCRASQTISSYLNWYQQKPGKAPKLLIYYTSTLQSGVPSRFSGSGSGTDYTLTISSLQPEDFATYYCQQGNAYPWTFGGGTKVEIKR
# B13: anti-PD-L1 monoclonal antibody 1029 (antibody, human IgG1, V domains shown)
# VH: EVQLVESGGGLVQPGGSLRLSCAASGFTLDYYSKCWFRQAPGKEREWVSCIGSSDGSTYYADSVKGRFTISRDNAKNTVYLQMNSLRAEDTAVYYCAARNGGPLTIENFFDYWGQGTQVTVSS
# B14: anti-PD-L1 monoclonal antibody 1031 (antibody, human IgG1, V domains shown)
# VH: EVQLVESGGGLVQPGGSLRLSCAASGFTFEYYTKCWFRQAPGKEREWVSCISTSEGSTYYADSVKGRFTISRDNAKNTVYLQMNSLRAEDTAVYYCAARKGGPLTIENFFDYWGQGTQVTVSS
# B15: anti-PD-L1 monoclonal antibody 1102 (antibody, human IgG1, V domains shown)
# VH: EVQLVESGGGLVQPGGSLRLSCAASGFTFDYYTQCWFRQAPGKEREWVSCISSSEGSTYYADSVKGRFTISRDNAKNTVYLQMNSLRAEDTAVYYCAARKGGPLTIENFFDYWGQGTQVTVSS
# B16: anti-PD-L1 monoclonal antibody 1541 (antibody, human IgG1, V domains shown)
# VH: EVQLVESGGGLVQPGGSLRLSCAASGFTFDYYTQCWFRQAPGKEREWVSCISSSEGSTYYADSVKGRFTISRDNSKNTVYLQMNSLKTEDTAVYYCAARKGGPLTIENFFDYWGQGTQVTVSS
# What was measured:
# [1] = biological target: cynomolgus PD-L1 antigen (ACROBiosystems) (cynomolgus) (UniProt G7PSE7); experiment: ELISA, coated antigen
# [2] = biological target: cynomolgus CD40 antigen (ACROBiosystems) (cynomolgus) (UniProt G7PG38); experiment: ELISA, coated antigen
Binder,binding [1],binding [2]
B1,binds,binds
B2,binds,binds
B3,binds,binds
B4,–,binds
B5,–,binds
B6,–,binds
B7,–,binds
B8,–,binds
B9,–,binds
B10,–,binds
B11,–,binds
B12,–,binds
B13,binds,–
B14,binds,–
B15,binds,–
B16,binds,–
